PubChem BioAssay AID493246 – Drosophila RNAi Screening Center | 2011
The screen tested about 21,000 reagents; shown is an unselected part of those that have a named target and a result. Over the whole deposit, 429 (2%) got an active call. 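Values are raw and not normalised between plates; calls rest on per-plate z-scores that were not deposited.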 Reagents against one gene are numbered here. Names joined by + are all predicted targets of the reagent. Reagent sequences are not shown. The record does not give: the amount of reagent, the time to read-out.

- Test: 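Identify essential fly genes by loss of cell viability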 (primary screen)
- System: Drosophila Kc and S2R+ cells
- Reagents: long dsRNA against Drosophila genes
- Read-out: 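Raw, unnormalised count of remaining cells in each well; per-plate z-scores of cell number underlie the calls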
- Scale: Kc cell number and S2R+ cell number: higher = more cells remaining
- Hit rule: 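Active when the per-plate z-score of cell number is 3 or more in the direction of fewer cells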

CG8765 → Kc cell number, rep 1 = 1.37e6; Kc cell number, rep 2 = 1.40e6; S2R+ cell number, rep 1 = 8.95e5; S2R+ cell number, rep 2 = 9.78e5; outcome = inactive
Lgr3 (Leucine-rich repeat-containing G protein-coupled receptor 3) #1 → Kc cell number, rep 1 = 1.63e6; Kc cell number, rep 2 = 1.60e6; S2R+ cell number, rep 1 = 1.01e6; S2R+ cell number, rep 2 = 1.13e6; outcome = inactive
Lgr3 (Leucine-rich repeat-containing G protein-coupled receptor 3) #2 → Kc cell number, rep 1 = 1.62e6; Kc cell number, rep 2 = 1.75e6; S2R+ cell number, rep 1 = 9.86e5; S2R+ cell number, rep 2 = 1.12e6; outcome = inactive
mal (maroon-like) → Kc cell number, rep 1 = 1.56e6; Kc cell number, rep 2 = 1.59e6; S2R+ cell number, rep 1 = 1.06e6; S2R+ cell number, rep 2 = 1.23e6; outcome = inactive
BCAS2 → Kc cell number, rep 1 = 5.59e5; S2R+ cell number, rep 1 = 8.19e5; outcome = inactive
CG4022 → Kc cell number, rep 1 = 1.47e6; Kc cell number, rep 2 = 1.53e6; S2R+ cell number, rep 1 = 1.15e6; S2R+ cell number, rep 2 = 1.30e6; outcome = inactive
Taf12 (TBP-associated factor 12) → Kc cell number, rep 1 = 1.67e6; Kc cell number, rep 2 = 1.73e6; S2R+ cell number, rep 1 = 1.18e6; S2R+ cell number, rep 2 = 1.25e6; outcome = inactive
CG31097 → Kc cell number, rep 1 = 1.44e6; Kc cell number, rep 2 = 1.62e6; S2R+ cell number, rep 1 = 1.08e6; S2R+ cell number, rep 2 = 1.21e6; outcome = inactive
pont (pontin) → Kc cell number, rep 1 = 1.55e6; Kc cell number, rep 2 = 1.53e6; S2R+ cell number, rep 1 = 1.22e6; S2R+ cell number, rep 2 = 1.29e6; outcome = inactive
CG3253 → Kc cell number, rep 1 = 1.48e6; Kc cell number, rep 2 = 1.55e6; S2R+ cell number, rep 1 = 1.11e6; S2R+ cell number, rep 2 = 1.12e6; outcome = inactive
Mst87F (Male-specific RNA 87F) → Kc cell number, rep 1 = 1.24e6; Kc cell number, rep 2 = 1.28e6; S2R+ cell number, rep 1 = 1.17e6; S2R+ cell number, rep 2 = 1.30e6; outcome = inactive
Tango10 (Transport and Golgi organization 10) → Kc cell number, rep 1 = 5.85e5; S2R+ cell number, rep 1 = 8.53e5; outcome = inactive
Nmt (N-myristoyl transferase) → Kc cell number, rep 1 = 1.60e6; Kc cell number, rep 2 = 1.59e6; S2R+ cell number, rep 1 = 1.09e6; S2R+ cell number, rep 2 = 1.11e6; outcome = inactive
hay (haywire) → Kc cell number, rep 1 = 1.42e6; Kc cell number, rep 2 = 1.49e6; S2R+ cell number, rep 1 = 1.15e6; S2R+ cell number, rep 2 = 1.13e6; outcome = inactive
Agpat4 (1-Acylglycerol-3-phosphate O-acyltransferase 4) → Kc cell number, rep 1 = 1.40e6; Kc cell number, rep 2 = 1.45e6; S2R+ cell number, rep 1 = 1.20e6; S2R+ cell number, rep 2 = 1.35e6; outcome = inactive
CG5611 → Kc cell number, rep 1 = 1.69e6; Kc cell number, rep 2 = 1.74e6; S2R+ cell number, rep 1 = 1.03e6; S2R+ cell number, rep 2 = 1.17e6; outcome = inactive

Records listed so far whose gene name begins with M or m:
mal (maroon-like) → Kc cell number, rep 1 = 1.56e6; Kc cell number, rep 2 = 1.59e6; S2R+ cell number, rep 1 = 1.06e6; S2R+ cell number, rep 2 = 1.23e6; outcome = inactive
Mst87F (Male-specific RNA 87F) → Kc cell number, rep 1 = 1.24e6; Kc cell number, rep 2 = 1.28e6; S2R+ cell number, rep 1 = 1.17e6; S2R+ cell number, rep 2 = 1.30e6; outcome = inactive

Further entries follow:
CtsB (Cathepsin B) → Kc cell number, rep 1 = 5.37e5; S2R+ cell number, rep 1 = 8.15e5; outcome = inactive
CG8777 → Kc cell number, rep 1 = 1.35e6; Kc cell number, rep 2 = 1.40e6; S2R+ cell number, rep 1 = 1.10e6; S2R+ cell number, rep 2 = 1.11e6; outcome = inactive
Sgf29 (SAGA-associated factor 29kDa) → Kc cell number, rep 1 = 1.36e6; Kc cell number, rep 2 = 1.47e6; S2R+ cell number, rep 1 = 1.21e6; S2R+ cell number, rep 2 = 1.28e6; outcome = inactive
tweek #1 → Kc cell number, rep 1 = 1.52e6; Kc cell number, rep 2 = 1.61e6; S2R+ cell number, rep 1 = 1.20e6; S2R+ cell number, rep 2 = 1.34e6; outcome = inactive
tweek #2 → Kc cell number, rep 1 = 1.43e6; Kc cell number, rep 2 = 1.52e6; S2R+ cell number, rep 1 = 1.19e6; S2R+ cell number, rep 2 = 1.34e6; outcome = inactive
tweek #3 → Kc cell number, rep 1 = 1.21e6; Kc cell number, rep 2 = 1.35e6; S2R+ cell number, rep 1 = 1.19e6; S2R+ cell number, rep 2 = 1.19e6; outcome = inactive
gdl-ORF39 + gdl → Kc cell number, rep 1 = 1.57e6; Kc cell number, rep 2 = 1.70e6; S2R+ cell number, rep 1 = 1.31e6; S2R+ cell number, rep 2 = 1.42e6; outcome = inactive
CG10943 → Kc cell number, rep 1 = 1.34e6; Kc cell number, rep 2 = 1.58e6; S2R+ cell number, rep 1 = 1.17e6; S2R+ cell number, rep 2 = 1.28e6; outcome = inactive
CG5973 → Kc cell number, rep 1 = 1.37e6; Kc cell number, rep 2 = 1.37e6; S2R+ cell number, rep 1 = 6.70e5; S2R+ cell number, rep 2 = 7.59e5; outcome = inactive
CG34327 → Kc cell number, rep 1 = 1.72e6; Kc cell number, rep 2 = 1.79e6; S2R+ cell number, rep 1 = 1.10e6; S2R+ cell number, rep 2 = 1.38e6; outcome = inactive
mRpL18 (mitochondrial ribosomal protein L18) → Kc cell number, rep 1 = 1.77e6; Kc cell number, rep 2 = 1.70e6; S2R+ cell number, rep 1 = 1.13e6; S2R+ cell number, rep 2 = 1.28e6; outcome = inactive
